## Results from one PubChem assay

From PubChem BioAssay record AID504749 (NCATS, 2011).

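Malaria parasite (P. falciparum) lines kept in red blood cells; parasite DNA is measured by SYBR Green fluorescence after lysis, 72 h after compound addition. Each compound was titrated across a series from about 0.000037 to 29 µM. The number is the fitted AC50, the concentration giving a half-maximal change in signal; a lower value means higher potency, whether the curve shows a decrease or an increase. Calls follow the curve class and fit quality: every row here is inconclusive, covering signal-raising curves and weak, poorly fitted, partial or highest-dose-only inhibition curves.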

Values are in µM. Every entry below has the call inconclusive. Only part of the assay is shown, chiefly results filed as inconclusive. A potency from a partial, single-point or poor curve is only a rough figure. Some entries filed as inconclusive have a full curve.

For CC(=O)O[C@@]1(C(C)=O)CCC2C3CC(C)C4=CC(=O)CC[C@@]4(C)C3CC[C@]21C (some centres unmarked) [ECU] the result was fitted potency 14.13 µM (inhibitor, single point).
For CC(=O)O[C@@]1(C(C)=O)CCC2C3CC(C)C4=CC(=O)CC[C@@]4(C)C3CC[C@]21C (some centres unmarked) [P93_24] the result was fitted potency 11.22 µM (inhibitor, single point).
For CC(=O)O[C@@]1(C(C)=O)CCC2C3CC(C)C4=CC(=O)CC[C@@]4(C)C3CC[C@]21C (some centres unmarked) [CP252] the result was fitted potency 15.85 µM (inhibitor, single point).
For CC(=O)O[C@@]1(C(C)=O)CCC2C3CC(C)C4=CC(=O)CC[C@@]4(C)C3CC[C@]21C (some centres unmarked) [AS120] the result was fitted potency 11.22 µM (inhibitor, single point).
For CC(=O)O[C@@]1(C(C)=O)CCC2C3CC(C)C4=CC(=O)CC[C@@]4(C)C3CC[C@]21C (some centres unmarked) [Dd2] the result was fitted potency 17.78 µM (inhibitor, single point).
For CC(=O)O[C@@]1(C(C)=O)CCC2C3CC(C)C4=CC(=O)CC[C@@]4(C)C3CC[C@]21C (some centres unmarked) [CP217] the result was fitted potency 8.912 µM (inhibitor, single point).
For CC(=O)O[C@@]1(C(C)=O)CCC2C3CC(C)C4=CC(=O)CC[C@@]4(C)C3CC[C@]21C (some centres unmarked) [ATS189] the result was fitted potency 8.912 µM (inhibitor, partial curve, poor fit).
For CC(=O)O[C@@]1(C(C)=O)CCC2C3CC(C)C4=CC(=O)CC[C@@]4(C)C3CC[C@]21C (some centres unmarked) [TAB165] the result was fitted potency 10 µM (inhibitor, single point).
For CC(=O)O[C@@]1(C(C)=O)CCC2C3CC(C)C4=CC(=O)CC[C@@]4(C)C3CC[C@]21C (some centres unmarked) [CP256] the result was fitted potency 12.59 µM (inhibitor, single point).
For CC(=O)O[C@@]1(C(C)=O)CCC2C3CC(C)C4=CC(=O)CC[C@@]4(C)C3CC[C@]21C (some centres unmarked) [N140] the result was fitted potency 10 µM (inhibitor, partial curve).
For CCOC(=O)[C@H](CCc1ccccc1)N[C@H]1CS[C@H](c2cccs2)CN(CC(=O)O)C1=O [GB4] the result was fitted potency 8.492 µM (inhibitor, partial curve, poor fit).
For CCOC(=O)[C@H](CCc1ccccc1)N[C@H]1CS[C@H](c2cccs2)CN(CC(=O)O)C1=O [DIV14] the result was fitted potency 13.46 µM (inhibitor, single point).
For CCOC(=O)[C@H](CCc1ccccc1)N[C@H]1CS[C@H](c2cccs2)CN(CC(=O)O)C1=O [ECU] the result was fitted potency 12.59 µM (inhibitor, single point).
For CCOC(=O)[C@H](CCc1ccccc1)N[C@H]1CS[C@H](c2cccs2)CN(CC(=O)O)C1=O [SC27B] the result was fitted potency 11.22 µM (inhibitor, single point).
For CCOC(=O)[C@H](CCc1ccccc1)N[C@H]1CS[C@H](c2cccs2)CN(CC(=O)O)C1=O [PAD] the result was fitted potency 0.1 µM (inhibitor, full curve, poor fit).
For CCOC(=O)[C@H](CCc1ccccc1)N[C@H]1CS[C@H](c2cccs2)CN(CC(=O)O)C1=O [P94_40] the result was fitted potency 11.22 µM (inhibitor, partial curve).
For CCOC(=O)[C@H](CCc1ccccc1)N[C@H]1CS[C@H](c2cccs2)CN(CC(=O)O)C1=O [AS120] the result was fitted potency 7.943 µM (inhibitor, partial curve, poor fit).
For CCOC(=O)[C@H](CCc1ccccc1)N[C@H]1CS[C@H](c2cccs2)CN(CC(=O)O)C1=O [parasite line B] the result was fitted potency 11.22 µM (inhibitor, single point).
For CCOC(=O)[C@H](CCc1ccccc1)N[C@H]1CS[C@H](c2cccs2)CN(CC(=O)O)C1=O [7G8] the result was fitted potency 10 µM (inhibitor, partial curve, poor fit).
For CCOC(=O)[C@H](CCc1ccccc1)N[C@H]1CS[C@H](c2cccs2)CN(CC(=O)O)C1=O [ICS] the result was fitted potency 10 µM (inhibitor, partial curve).
For CCOC(=O)[C@H](CCc1ccccc1)N[C@H]1CS[C@H](c2cccs2)CN(CC(=O)O)C1=O [P93_24] the result was fitted potency 1.778 µM (inhibitor, full curve).
For CCOC(=O)[C@H](CCc1ccccc1)N[C@H]1CS[C@H](c2cccs2)CN(CC(=O)O)C1=O [TAB165] the result was fitted potency 12.59 µM (inhibitor, partial curve, poor fit).

Once more, the final 2:

| structure | tested on / at | fitted potency (µM) | curve |
|---|---|---|---|
| `CCOC(=O)[C@H](CCc1ccccc1)N[C@H]1CS[C@H](c2cccs2)CN(CC(=O)O)C1=O` | P93_24 | 1.778 | inhibitor, full curve |
| `CCOC(=O)[C@H](CCc1ccccc1)N[C@H]1CS[C@H](c2cccs2)CN(CC(=O)O)C1=O` | TAB165 | 12.59 | inhibitor, partial curve, poor fit |